{
  "source": "the supplement of paper PMC8728848",
  "binders": {"B1": {"name": "PX9961W-pdi-543-27-543 (Parabacteroides distasonis) (protein)", "chain": "EGNATTTSYFLNDQQAIDAIDGLYERFHQEGCYGRELFWEQGAACDIVWGRTRGYNSLATLAYTGDESPLRDVFSRMYSTMSRANWIIQELVKKEKGTTLTAVEKRSLGEAYFSRGWAHYLIAYRYGTDKQGVPFVRYEDFPDDYDNSIPPQQATVMDNYKLIIEDMDKAIAYLPIFESYDADNRGRAHQAAAVAFKAKTYAYWATWDATQWNNVIEMVNQLENNYNRDLAPTFAELFSSDLKDYWNAEYLWTIPSIGGALPGGTEFPGIILENKGWGKYNGWGQMKPSYDIYEEMAKDGKGNDRLVRSILEYNQEFPFFGETRKFWSTSDLEAGFMINKYMDAFKYSDPVGEGAVSANGDWPTVRVNFPIIRFAEMLLFRAEAYLMTGQADKATADINRIRLRSNLTPLTGTATMKDLYHERRCELAFEFTDHLFDLKRWNRSSNADIKTLADKELNAHPRIRRYEDRANPESAFTIIGYEDYTNKNAYQAHMMVFPYPSEEITKSNGQLKQNEGY"}},
  "assay_in_all_cases": "glycan array binding signal (z-score within array); higher = stronger binding",
  "details_in_all_cases": "glycan notation: IUPAC condensed, linker removed",
  "key": {"[1]": {"target": "Neu5Ac(a2-3)Gal(b1-4)Glc", "in_short": "(§1)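 From the Consortium for Functional Glycomics database, 3228 arrays were curated, keeping only those whose protein sequence was available. Binding is given as a within-array Z-score averaged across arrays sharing a protein sequence and across linkers. Negative Z-scores can be read as non-binding.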"}, "[2]": {"target": "Neu5Ac(a2-3)Gal(b1-4)GlcNAc", "in_short": "as §1"}, "[3]": {"target": "Neu5Ac(a2-3)Gal(b1-4)GlcNAc(b1-2)Man", "in_short": "as §1"}, "[4]": {"target": "Neu5Ac(a2-3)Gal(b1-4)GlcNAc(b1-2)Man(a1-3)[GlcNAc(b1-4)][Neu5Ac(a2-3)Gal(b1-4)GlcNAc(b1-2)Man(a1-6)]Man(b1-4)GlcNAc(b1-4)GlcNAc", "in_short": "as §1"}, "[5]": {"target": "Neu5Ac(a2-3)Gal(b1-4)GlcNAc(b1-2)Man(a1-3)[Neu5Ac(a2-3)Gal(b1-4)GlcNAc(b1-2)Man(a1-6)]Man(b1-4)GlcNAc(b1-4)GlcNAc", "in_short": "as §1"}, "[6]": {"target": "Neu5Ac(a2-3)Gal(b1-4)GlcNAc(b1-2)Man(a1-3)[Neu5Ac(a2-3)Gal(b1-4)GlcNAc(b1-2)Man(a1-6)]Man(b1-4)GlcNAc(b1-4)[Fuc(a1-6)]GlcNAc", "in_short": "as §1"}, "[7]": {"target": "Neu5Ac(a2-3)Gal(b1-4)GlcNAc(b1-2)Man(a1-3)[Neu5Ac(a2-6)Gal(b1-4)GlcNAc(b1-2)Man(a1-6)]Man(b1-4)GlcNAc(b1-4)GlcNAc", "in_short": "as §1"}, "[8]": {"target": "Neu5Ac(a2-3)Gal(b1-4)GlcNAc(b1-2)[Neu5Ac(a2-3)Gal(b1-4)GlcNAc(b1-4)]Man(a1-3)[GlcNAc(b1-4)][Neu5Ac(a2-3)Gal(b1-4)GlcNAc(b1-2)[Neu5Ac(a2-3)Gal(b1-4)GlcNAc(b1-6)]Man(a1-6)]Man(b1-4)GlcNAc(b1-4)GlcNAc", "in_short": "as §1"}, "[9]": {"target": "Neu5Ac(a2-3)Gal(b1-4)GlcNAc(b1-2)[Neu5Ac(a2-3)Gal(b1-4)GlcNAc(b1-4)]Man(a1-3)[GlcNAc(b1-4)][Neu5Ac(a2-3)Gal(b1-4)GlcNAc(b1-4)Man(a1-6)]Man(b1-4)GlcNAc(b1-4)GlcNAc", "in_short": "as §1"}, "[10]": {"target": "Neu5Ac(a2-3)Gal(b1-4)GlcNAc(b1-2)[Neu5Ac(a2-3)Gal(b1-4)GlcNAc(b1-6)]Man(a1-6)[Neu5Ac(a2-3)Gal(b1-4)GlcNAc(b1-2)Man(a1-3)]Man(b1-4)GlcNAc(b1-4)GlcNAc", "in_short": "as §1"}, "[11]": {"target": "Neu5Ac(a2-3)Gal(b1-4)GlcNAc(b1-2)[Neu5Ac(a2-3)Gal(b1-4)GlcNAc(b1-6)]Man(a1-6)[Neu5Ac(a2-3)Gal(b1-4)GlcNAc(b1-2)Man(a1-3)][GlcNAc(b1-4)]Man(b1-4)GlcNAc(b1-4)GlcNAc", "in_short": "as §1"}, "[12]": {"target": "Neu5Ac(a2-3)Gal(b1-4)GlcNAc(b1-3)Gal", "in_short": "as §1"}, "[13]": {"target": "Neu5Ac(a2-3)Gal(b1-4)GlcNAc(b1-3)Gal(b1-3)GlcNAc", "in_short": "as §1"}, "[14]": {"target": "Neu5Ac(a2-3)Gal(b1-4)GlcNAc(b1-3)Gal(b1-4)GlcNAc", "in_short": "as §1"}, "[15]": {"target": "Neu5Ac(a2-3)Gal(b1-4)GlcNAc(b1-3)Gal(b1-4)GlcNAc(b1-2)Man(a1-3)[Neu5Ac(a2-3)Gal(b1-4)GlcNAc(b1-3)Gal(b1-4)GlcNAc(b1-2)Man(a1-6)]Man(b1-4)GlcNAc(b1-4)GlcNAc", "in_short": "as §1"}, "[16]": {"target": "Neu5Ac(a2-3)Gal(b1-4)GlcNAc(b1-3)Gal(b1-4)GlcNAc(b1-3)Gal(b1-4)GlcNAc", "in_short": "as §1"}, "[17]": {"target": "Neu5Ac(a2-3)Gal(b1-4)GlcNAc(b1-3)Gal(b1-4)GlcNAc(b1-3)Gal(b1-4)GlcNAc(b1-2)Man(a1-3)[Neu5Ac(a2-3)Gal(b1-4)GlcNAc(b1-3)Gal(b1-4)GlcNAc(b1-3)Gal(b1-4)GlcNAc(b1-2)Man(a1-6)]GalNAc", "in_short": "as §1"}, "[18]": {"target": "Neu5Ac(a2-3)Gal(b1-4)GlcNAc(b1-3)Gal(b1-4)GlcNAc(b1-3)GalNAc", "in_short": "as §1"}, "[19]": {"target": "Neu5Ac(a2-3)Gal(b1-4)GlcNAc(b1-3)Gal(b1-4)GlcNAc(b1-3)[Neu5Ac(a2-3)Gal(b1-4)GlcNAc(b1-3)Gal(b1-4)GlcNAc(b1-6)]GalNAc", "in_short": "as §1"}, "[20]": {"target": "Neu5Ac(a2-3)Gal(b1-4)GlcNAc(b1-3)Gal(b1-4)GlcNAc(b1-6)[Gal(b1-3)]GalNAc", "in_short": "as §1"}, "[21]": {"target": "Neu5Ac(a2-3)Gal(b1-4)GlcNAc(b1-3)Gal(b1-4)[Fuc(a1-3)]GlcNAc", "in_short": "as §1"}, "[22]": {"target": "Neu5Ac(a2-3)Gal(b1-4)GlcNAc(b1-3)GalNAc", "in_short": "as §1"}, "[23]": {"target": "Neu5Ac(a2-3)Gal(b1-4)GlcNAc(b1-3)[Neu5Ac(a2-3)Gal(b1-4)GlcNAc(b1-6)]GalNAc", "in_short": "as §1"}, "[24]": {"target": "Neu5Ac(a2-3)Gal(b1-4)GlcNAc(b1-6)GalNAc", "in_short": "as §1"}, "[25]": {"target": "Neu5Ac(a2-3)Gal(b1-4)GlcNAc(b1-6)[Gal(b1-3)]GalNAc", "in_short": "as §1"}, "[26]": {"target": "Neu5Ac(a2-3)Gal(b1-4)GlcNAc(b1-6)[Neu5Ac(a2-3)Gal(b1-3)]GalNAc", "in_short": "as §1"}, "[27]": {"target": "Neu5Ac(a2-3)Gal(b1-4)GlcNAc6S", "in_short": "as §1"}, "[28]": {"target": "Neu5Ac(a2-3)Gal(b1-4)[Fuc(a1-3)]GlcNAc", "in_short": "as §1"}, "[29]": {"target": "Neu5Ac(a2-3)Gal(b1-4)[Fuc(a1-3)]GlcNAc(b1-2)Man", "in_short": "as §1"}, "[30]": {"target": "Neu5Ac(a2-3)Gal(b1-4)[Fuc(a1-3)]GlcNAc(b1-3)Gal", "in_short": "as §1"}, "[31]": {"target": "Neu5Ac(a2-3)Gal(b1-4)[Fuc(a1-3)]GlcNAc(b1-3)Gal(b1-4)GlcNAc", "in_short": "as §1"}, "[32]": {"target": "Neu5Ac(a2-3)Gal(b1-4)[Fuc(a1-3)]GlcNAc(b1-3)Gal(b1-4)[Fuc(a1-3)]GlcNAc(b1-3)Gal(b1-4)[Fuc(a1-3)]GlcNAc", "in_short": "as §1"}, "[33]": {"target": "Neu5Ac(a2-3)Gal(b1-4)[Fuc(a1-3)]GlcNAc(b1-3)GalNAc", "in_short": "as §1"}, "[34]": {"target": "Neu5Ac(a2-3)Gal(b1-4)[Fuc(a1-3)]GlcNAc(b1-6)[Gal(b1-3)]GalNAc", "in_short": "as §1"}, "[35]": {"target": "Neu5Ac(a2-3)Gal(b1-4)[Fuc(a1-3)]GlcNAc(b1-6)[Neu5Ac(a2-3)Gal(b1-3)]GalNAc", "in_short": "as §1"}, "[36]": {"target": "Neu5Ac(a2-3)Gal(b1-4)[Fuc(a1-3)]GlcNAc6S", "in_short": "as §1"}, "[37]": {"target": "Neu5Ac(a2-3)Gal6S(b1-4)GlcNAc", "in_short": "as §1"}, "[38]": {"target": "Neu5Ac(a2-3)Gal6S(b1-4)[Fuc(a1-3)]GlcNAc", "in_short": "as §1"}},
  "note": "Some of the results follow.",
  "data": [
    {"binder": "B1", "values": [
      {"measurement": "glycan array binding signal (z-score)", "setting": "[1]", "value": 0.071},
      {"measurement": "glycan array binding signal (z-score)", "setting": "[2]", "value": -0.445},
      {"measurement": "glycan array binding signal (z-score)", "setting": "[3]", "value": 1.56},
      {"measurement": "glycan array binding signal (z-score)", "setting": "[4]", "value": -0.853},
      {"measurement": "glycan array binding signal (z-score)", "setting": "[5]", "value": -0.589},
      {"measurement": "glycan array binding signal (z-score)", "setting": "[6]", "value": -0.066},
      {"measurement": "glycan array binding signal (z-score)", "setting": "[7]", "value": 0.694},
      {"measurement": "glycan array binding signal (z-score)", "setting": "[8]", "value": -0.466},
      {"measurement": "glycan array binding signal (z-score)", "setting": "[9]", "value": -0.497},
      {"measurement": "glycan array binding signal (z-score)", "setting": "[10]", "value": 1.21},
      {"measurement": "glycan array binding signal (z-score)", "setting": "[11]", "value": 0.163},
      {"measurement": "glycan array binding signal (z-score)", "setting": "[12]", "value": -0.293},
      {"measurement": "glycan array binding signal (z-score)", "setting": "[13]", "value": -0.968},
      {"measurement": "glycan array binding signal (z-score)", "setting": "[14]", "value": -0.712},
      {"measurement": "glycan array binding signal (z-score)", "setting": "[15]", "value": -0.685},
      {"measurement": "glycan array binding signal (z-score)", "setting": "[16]", "value": -0.243},
      {"measurement": "glycan array binding signal (z-score)", "setting": "[17]", "value": 0.571},
      {"measurement": "glycan array binding signal (z-score)", "setting": "[18]", "value": -0.203},
      {"measurement": "glycan array binding signal (z-score)", "setting": "[19]", "value": 0.661},
      {"measurement": "glycan array binding signal (z-score)", "setting": "[20]", "value": -0.31},
      {"measurement": "glycan array binding signal (z-score)", "setting": "[21]", "value": 0.499},
      {"measurement": "glycan array binding signal (z-score)", "setting": "[22]", "value": -0.939},
      {"measurement": "glycan array binding signal (z-score)", "setting": "[23]", "value": -0.167},
      {"measurement": "glycan array binding signal (z-score)", "setting": "[24]", "value": -0.049},
      {"measurement": "glycan array binding signal (z-score)", "setting": "[25]", "value": 0.953},
      {"measurement": "glycan array binding signal (z-score)", "setting": "[26]", "value": -1.34},
      {"measurement": "glycan array binding signal (z-score)", "setting": "[27]", "value": -0.696},
      {"measurement": "glycan array binding signal (z-score)", "setting": "[28]", "value": -0.648},
      {"measurement": "glycan array binding signal (z-score)", "setting": "[29]", "value": 0.168},
      {"measurement": "glycan array binding signal (z-score)", "setting": "[30]", "value": -0.289},
      {"measurement": "glycan array binding signal (z-score)", "setting": "[31]", "value": 0.072},
      {"measurement": "glycan array binding signal (z-score)", "setting": "[32]", "value": 0.158},
      {"measurement": "glycan array binding signal (z-score)", "setting": "[33]", "value": 0.167},
      {"measurement": "glycan array binding signal (z-score)", "setting": "[34]", "value": -0.155},
      {"measurement": "glycan array binding signal (z-score)", "setting": "[35]", "value": 0.572},
      {"measurement": "glycan array binding signal (z-score)", "setting": "[36]", "value": -0.871},
      {"measurement": "glycan array binding signal (z-score)", "setting": "[37]", "value": -0.643},
      {"measurement": "glycan array binding signal (z-score)", "setting": "[38]", "value": -0.612}
    ]}
  ]
}
